We go through one substance from PMC7927628.

Sequences of proteins named here, by UniProt entry; tags and fusion partners are left off.
UniProt O75901: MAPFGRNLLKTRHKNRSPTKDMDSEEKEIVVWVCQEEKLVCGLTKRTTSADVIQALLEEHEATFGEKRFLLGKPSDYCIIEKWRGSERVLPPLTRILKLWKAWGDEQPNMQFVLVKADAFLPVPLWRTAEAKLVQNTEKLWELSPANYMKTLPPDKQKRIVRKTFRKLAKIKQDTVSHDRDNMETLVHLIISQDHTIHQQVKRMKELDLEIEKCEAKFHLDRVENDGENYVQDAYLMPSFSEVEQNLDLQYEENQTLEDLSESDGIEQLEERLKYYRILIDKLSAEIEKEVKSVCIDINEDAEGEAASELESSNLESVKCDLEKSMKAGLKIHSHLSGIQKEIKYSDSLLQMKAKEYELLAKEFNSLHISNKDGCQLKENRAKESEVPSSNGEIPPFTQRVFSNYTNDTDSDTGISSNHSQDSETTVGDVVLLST

Results are given in words; binding and its absence hold for the method and conditions named. Binding seen in cells or lysates may run through a third protein. These calls come from enrichment with a bait or labelling near it, and not all partners need be listed.

The target in this assay is T1, TGF‐β‐activated kinase 1 (TAK1) (UniProt O43318).
T1 sequence: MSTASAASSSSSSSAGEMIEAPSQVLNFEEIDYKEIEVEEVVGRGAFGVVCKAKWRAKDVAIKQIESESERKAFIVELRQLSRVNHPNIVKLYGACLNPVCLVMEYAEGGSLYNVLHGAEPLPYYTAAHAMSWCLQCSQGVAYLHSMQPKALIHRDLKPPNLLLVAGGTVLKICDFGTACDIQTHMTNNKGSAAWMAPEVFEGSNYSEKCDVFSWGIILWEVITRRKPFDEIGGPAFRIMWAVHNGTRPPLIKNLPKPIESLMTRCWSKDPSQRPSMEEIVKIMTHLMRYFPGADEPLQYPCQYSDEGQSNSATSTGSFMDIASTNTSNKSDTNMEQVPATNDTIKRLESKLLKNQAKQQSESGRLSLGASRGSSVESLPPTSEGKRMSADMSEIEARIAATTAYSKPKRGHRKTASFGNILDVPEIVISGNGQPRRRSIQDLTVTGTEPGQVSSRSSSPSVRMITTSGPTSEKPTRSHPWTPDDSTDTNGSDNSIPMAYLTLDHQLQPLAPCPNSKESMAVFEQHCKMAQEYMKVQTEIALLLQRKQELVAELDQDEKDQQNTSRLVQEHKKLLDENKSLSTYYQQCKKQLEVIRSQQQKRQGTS
The assay is described as follows: affinity purification with mass spectrometry; co-immunoprecipitation with anti-TAK1 antibody, then mass spectrometry of phosphorylated proteins in the complex; cells not told in the main text.

With “Ras association domain family 9 (RASSF9), phosphorylated at S284 (from UniProt O75901 1-435)”, the binding entry is “binds”.
